Record: PubChem BioAssay AID1053208 (Peter MacCallum Cancer Centre, 2014)
Shown is an unselected part of about 17,000 deposited reagents. Of all reagents, 788 (4.7%) are marked active. 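Calls rest on z-score classes alone; an extra cut-off of viability at most 70% of control was not applied to them.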 Unmarked entries are inactive. No sequences are given here.

Aim: 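Genes whose silencing cuts survival of bone tumour cells only with doxorubicin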 (primary screen)
Cell system: mouse osteosarcoma cells, early-passage culture from an engineered mouse model of fibroblastic bone tumour
Reagents: siRNA pool against mouse genes, 40 nM
Timing: about 120 h (48 h before drug, then 72 h with drug)
Challenge: doxorubicin 100 nM for 72 h, roughly 30-40% inhibitory dose
Detection: 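Luminescent ATP signal taken as viability with or without 100 nM doxorubicin for 72 h; mean of two wells set against non-targeting siRNA and turned into robust z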
Direction: viability z-score with doxorubicin and doxorubicin viability vs non-targeting: higher = more viable cells under doxorubicin; viability z-score without drug: higher = more viable cells with knock-down alone; z-score of drug to no-drug ratio: higher = less drug sensitisation by knock-down
Call rule: 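a pool counts as active when its viability z-score with doxorubicin is -2 or below and its z-score without drug lies between -2 and 2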

target | combined z-score class | viability z-score with doxorubicin | viability z-score without drug | z-score of drug to no-drug ratio | doxorubicin viability vs non-targeting
Lime1 | no change with or without drug | 0 | -0.17 | 0.22 | 0.94
Or5aq1 | high cell count without drug only | 1.35 | 2.87 | -0.34 | 1.06
Il36a | no change with or without drug | 0.9 | 1.52 | 0 | 1.02
Slc14a2 | no change with or without drug | 0.22 | -0.34 | 0.56 | 0.96
Mtmr3 | no change with or without drug | 1.12 | 0.51 | 0.9 | 1.04
Fgb | no change with or without drug | -1.46 | 1.35 | -2.14 | 0.81
Sfxn3 | low cell count with doxorubicin only (active) | -2.25 | -1.18 | -1.57 | 0.74
Klhl38 | no change with or without drug | 0.45 | 0.51 | 0.22 | 0.98
Hbb-b2 | no change with or without drug | -0.22 | 1.18 | -0.9 | 0.92
Ankrd52 | high cell count without drug only | 1.12 | 2.02 | -0.11 | 1.04
Pcyox1 | high cell count without drug only | 1.91 | 2.02 | 0.67 | 1.11
Adam15 | no change with or without drug | 0.22 | -0.17 | 0.45 | 0.96
Vmac | no change with or without drug | -0.45 | -0.34 | -0.11 | 0.9
Mrpl18 | low cell count without drug only | -0.11 | -2.53 | 2.02 | 0.93
Wrap73 | no change with or without drug | 0.45 | -0.51 | 1.01 | 0.98
Cntn3 | no change with or without drug | 0.9 | 1.18 | 0.22 | 1.02
Pcdhga1 | low cell count with doxorubicin only (active) | -2.02 | -0.51 | -1.69 | 0.76
Wfdc18 | no change with or without drug | -0.45 | 0.34 | -0.56 | 0.9
Cdca7 | low cell count with doxorubicin only (active) | -2.36 | -0.84 | -1.91 | 0.73
Ca15 | no change with or without drug | -0.67 | -0.51 | -0.22 | 0.88

Reagents listed above with an active call, once more:
target | combined z-score class | viability z-score with doxorubicin | viability z-score without drug | z-score of drug to no-drug ratio | doxorubicin viability vs non-targeting
Sfxn3 | low cell count with doxorubicin only (active) | -2.25 | -1.18 | -1.57 | 0.74
Pcdhga1 | low cell count with doxorubicin only (active) | -2.02 | -0.51 | -1.69 | 0.76
Cdca7 | low cell count with doxorubicin only (active) | -2.36 | -0.84 | -1.91 | 0.73
